{"source": "PubChem BioAssay AID662", "about": "(National Center for Advancing Translational Sciences (NCATS), 2007)", "note": "“And” between values parts separate entries of the source, which are not always exact repeats. Equal entries are not always repeated. The list shows a part of the results. Further columns of the screen follow, without active or inactive calls. Compounds called inactive in the main read-out are mostly missing here. Potencies come from curve fits of mixed quality, noted in brackets."}
{"assay": "Cell signaling CRE-BLA (Fsk stim)", "conditions": "CHO CRE-bla reporter (cAMP response element driving beta-lactamase), forskolin EC10, beta-lactamase ratio; measured here: 460 nm blue channel", "outline": "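The 460nm/530nm emission ratio after CCF4 loading defined %Activity, from which AC50 values were obtained. CRE-bla CHO cells received compound dilution series together with an EC10 level of NKH 477 for 3 hours at 37 degrees Celsius.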"}
{"smiles": "O=C(c1cccc(S(=O)(=O)N2CCOCC2)c1)N1CCCCCC1", "AC50": "5.01 µM [falling, single point]"}
{"smiles": "COc1ccc(C(=O)C2CCN(S(=O)(=O)c3ccc4c(c3)OCCO4)CC2)cc1", "AC50": "25.1 µM [falling, single point]"}
{"smiles": "COc1ccc2cc(CCNC(=O)c3c(-c4ccccc4Cl)noc3C)c(=O)[nH]c2c1", "AC50": "10 µM [rising, partial curve]"}
{"smiles": "COc1ccc2nc3oc(C(=O)N4CCCCC4)cc3cc2c1", "AC50": "12.6 µM [rising, partial curve, poor fit]"}
{"smiles": "O=C(Cc1ccc(F)cc1)OCC(=O)c1cc2ccccc2o1", "AC50": "0.126 µM [falling, full curve, poor fit]"}
{"smiles": "CCOC(=O)CSc1nc2c(cnn2-c2ccc(C)cc2)c(=O)[nH]1", "AC50": "0.00316 µM [falling, full curve, poor fit]"}
{"smiles": "CCc1nc2oc3ccccc3c(=O)c2c(=O)n1Cc1ccc(OC)cc1", "AC50": "6.31 µM [rising, partial curve]"}
{"smiles": "O=C(CCCCn1c(=O)[nH]c2ccccc2c1=O)N1CCN(c2ncccn2)CC1", "AC50": "12.6 µM [rising, partial curve]"}
{"smiles": "O=C(c1ccc(Br)o1)N1CCN(c2ccc(F)cc2)CC1", "AC50": "3.16 µM [rising, full curve, poor fit]"}
{"smiles": "CCn1c(=O)c2c(cnn2C)c2ccccc21", "AC50": "25.1 µM [rising, single point]"}
{"smiles": "COc1cccc(-c2cc(C(F)(F)F)n3nc(N)nc3n2)c1", "AC50": "1.58 µM [falling, partial curve]"}
{"smiles": "COc1c2ccoc2cc2oc(=O)ccc12", "AC50": "25.1 µM [rising, partial curve, poor fit] and 15.8 µM [rising, partial curve]"}
{"smiles": "COc1ccc(-c2cc(C(=O)NCc3cccs3)no2)cc1OC", "AC50": "12.6 µM [rising, partial curve]"}
{"smiles": "COCCSc1nnc(NC(=O)C2CCCO2)s1", "note": "(centres undefined)", "AC50": "12.6 µM [rising, single point]"}
{"smiles": "Clc1ccc(CC[C@H](Cn2ccnc2)Sc2c(Cl)cccc2Cl)cc1", "AC50": "12.6 µM [falling, single point]"}
{"smiles": "O=S(=O)(c1ccc(F)cc1)N1CN(Cc2ccco2)c2nc3ccccc3nc21", "AC50": "25.1 µM [rising, single point]"}
{"smiles": "CCSc1nc2nc(C)cc(C)n2n1", "AC50": "0.126 µM [falling, full curve, poor fit]"}
{"smiles": "CCCn1nnc(NC(=O)c2cccc(OCC(C)C)c2)n1", "AC50": "2 µM [falling, partial curve, poor fit]"}
{"smiles": "CC1CCN(c2nc(-c3ccncc3)nc3ccccc23)CC1", "AC50": "3.16 µM [rising, full curve]"}
{"smiles": "CCCCn1c(=S)[nH]c2c(oc3ccc(Cl)cc32)c1=O", "AC50": "0.00398 µM [falling, full curve, poor fit]"}
{"smiles": "O=S(=O)(NCc1ccc2c(c1)OCO2)c1ccc2c(c1)oc1ccccc12", "AC50": "3.98 µM [rising, partial curve]"}
{"smiles": "Cc1cccc(CNc2ncnc3ccc(-c4cccc(C#N)c4)cc23)c1", "AC50": "2.51 µM [rising, full curve]"}
{"smiles": "COc1ccc(-n2c(=O)c(-c3cccs3)nc3cnc(OC)nc32)cc1", "AC50": "7.94 µM [rising, partial curve]"}
{"smiles": "Cc1sc2nc(C3CC3)nc(SCC(=O)NCc3ccco3)c2c1C", "AC50": "7.94 µM [rising, partial curve]"}
{"smiles": "COCCCNc1ccnc2c(Cl)cccc12", "AC50": "10 µM [falling, partial curve]"}
{"smiles": "CSc1nc(NC(C)C)nc(N2CCOCC2)n1", "AC50": "5.01 µM [rising, partial curve]"}
{"smiles": "Cc1ccc2cc(CCNC(=O)c3ccc(Br)o3)c(=O)[nH]c2c1", "AC50": "3.16 µM [rising, full curve, poor fit]"}
{"smiles": "CC(=O)NCCNc1nc(-c2ccccc2Cl)nc2ccccc12", "AC50": "7.94 µM [rising, partial curve]"}
{"smiles": "COc1ccc(CCN2CCCn3c2nc2c3c(=O)n(Cc3ccccc3F)c(=O)n2C)cc1OC", "AC50": "10 µM [rising, partial curve]"}
{"smiles": "COCCn1c(=O)c(-c2ccccc2)nc2cncnc21", "AC50": "25.1 µM [rising, single point]"}
{"smiles": "COCCn1c(C)cc(C(=O)CSc2nc(C)nc3sc4c(c23)CCC4)c1C", "AC50": "1.26 µM [rising, partial curve]"}
{"smiles": "COc1ccc(C(=O)c2ccc(OC)c(N)c2)cc1N", "AC50": "12.6 µM [rising, single point]"}
{"smiles": "Cn1c(C(=O)NCC2CCCO2)cc2c(=O)n3ccccc3nc21", "note": "(centres undefined)", "AC50": "1.26 µM [rising, full curve]"}
{"smiles": "CCCn1nnnc1SCC(=O)c1ccc2c(c1)OCCO2", "AC50": "2.51 µM [falling, partial curve]"}
{"smiles": "O=C(N1CCN(CCO)CC1)N1c2ccccc2C=Cc2ccccc21", "AC50": "5.01 µM [falling, single point]"}
{"smiles": "Cc1cc(-n2nc(C)cc2C)nc(N)n1", "AC50": "12.6 µM [rising, single point]"}
{"smiles": "[O-][N+]1=c2ccc(Nc3ccccc3)cc2=NC12CCCCC2", "AC50": "2.51 µM [falling, full curve]"}
{"smiles": "Nc1nc(N)c2nc(CNc3ccc(C(=O)N[C@H](CCC(=O)O)C(=O)O)cc3)cnc2n1", "AC50": "25.1 µM [rising, partial curve]"}
{"smiles": "CS(=O)(=O)c1ccc2nc(NC(=O)CC3CCCC3)sc2c1", "AC50": "12.6 µM [rising, single point]"}
{"smiles": "CNC(=O)c1nnn(Cc2ccccc2)c1NC(=O)C(F)(F)F", "AC50": "1 µM [rising, partial curve, poor fit]"}
{"smiles": "CCOC(=O)N1CCN(C(=O)c2ccc3c(=O)n(CCC4=CCCCC4)c(=S)[nH]c3c2)CC1", "AC50": "5.01 µM [rising, single point]"}
{"smiles": "O=S(=O)(NCc1ccccc1)c1cccc2nonc12", "AC50": "0.00794 µM [falling, full curve]"}
{"smiles": "C/C=C/Cn1c(N2CCCCCC2)nc2c1c(=O)[nH]c(=O)n2C", "AC50": "1.26 µM [rising, full curve]"}
{"smiles": "O=C(CCNS(=O)(=O)c1cccc2nsnc12)NC1CCCc2ccccc21", "note": "(centres undefined)", "AC50": "25.1 µM [rising, single point]"}
{"smiles": "Cc1noc(C)c1COC(=O)c1ccc2c(c1)OCO2", "AC50": "5.01 µM [falling, single point]"}
{"smiles": "CCOC(=O)c1cc(C)n(-c2c(C)n(C)n(-c3ccccc3)c2=O)c1C", "AC50": "1.26 µM [rising, single point]"}
{"smiles": "O=C(NCc1ccncc1)c1ccc(Br)cc1", "AC50": "1 µM [rising, single point]"}
{"smiles": "COc1ccc(-n2nc3cc(C)c(N)c(Br)c3n2)cc1", "AC50": "25.1 µM [rising, single point]"}
{"smiles": "O=C(NC1CCCCC1)C(c1ccco1)N(Cc1cccs1)C(=O)Cn1nnc2ccccc21", "note": "(centres undefined)", "AC50": "0.00398 µM [falling, full curve, poor fit]"}
{"smiles": "CCCCCn1c(S(=O)(=O)O)nc2ccccc21", "AC50": "0.398 µM [falling, partial curve]"}
{"smiles": "Cc1ccc(C2CC(=O)N3CN(c4ccc(Br)cc4)CSC3=C2C#N)o1", "note": "(centres undefined)", "AC50": "25.1 µM [falling, partial curve]"}
{"smiles": "Cc1cc(NC(=O)c2sccc2C)n(-c2cccc(Cl)c2)n1", "AC50": "7.94 µM [rising, partial curve]"}
{"smiles": "CC(C)Cn1c(=O)c2c(nc3n2CCCN3CCc2ccccc2)n(C)c1=O", "AC50": "6.31 µM [rising, partial curve]"}
{"smiles": "O=C1CC(c2ccccc2)Cc2nc(NCc3ccco3)ncc21", "note": "(centres undefined)", "AC50": "25.1 µM [falling, single point]"}
{"smiles": "Cc1cnc(CNc2ncnc3ccc(-c4ccccc4Cl)cc23)cn1", "AC50": "5.01 µM [falling, single point]"}
{"smiles": "Cc1ccc(NC(=O)Cn2nnc(C(=O)Nc3ccc(C)c(C)c3)c2N)cc1", "AC50": "25.1 µM [falling, single point]"}
{"smiles": "CCOc1ccc(NS(=O)(=O)c2ccc3[nH]cc(C(=O)N(CC)CC)c(=O)c3c2)cc1", "AC50": "12.6 µM [falling, partial curve, poor fit]"}
{"smiles": "c1coc(-c2nc3nc4ccccc4nc3n2CC2CCCO2)c1", "note": "(centres undefined)", "AC50": "15.8 µM [rising, partial curve]"}
{"smiles": "CCC(=O)N1CCc2cc(S(=O)(=O)CCC(=O)NCCC3=CCCCC3)ccc21", "AC50": "25.1 µM [rising, single point]"}
{"smiles": "O=c1cc(N2CCOCC2)[nH]c(=O)n1C1CCCCC1", "AC50": "3.98 µM [falling, single point]"}
{"smiles": "CN1CCCc2cc3c(C(F)(F)F)cc(=O)oc3nc21", "AC50": "10 µM [rising, partial curve]"}
{"smiles": "Cc1nnc2sc(-c3ccc(NC(=O)c4ccc(-c5ccc(Br)cc5)o4)cc3)nn12", "AC50": "12.6 µM [rising, single point]"}
{"smiles": "CCC1(CC)C(=O)NC(=O)NC1=Nc1cccc(OC)c1", "AC50": "3.16 µM [falling, full curve]"}
{"smiles": "CCc1c(C)nc2ncnn2c1NCCc1ccc(OC)cc1", "AC50": "10 µM [rising, partial curve]"}
{"smiles": "CCCc1cc(C(=O)Nc2sc3c(c2C#N)CCC3)no1", "AC50": "10 µM [rising, partial curve]"}
{"smiles": "Cc1cc(=O)n2nc(N3CCC(C(=O)NCc4cccnc4)CC3)sc2n1", "AC50": "25.1 µM [rising, single point]"}
{"smiles": "O=c1oc2ccccc2c2c1ncn2C1CCCCC1", "AC50": "12.6 µM [rising, partial curve]"}
{"smiles": "COC(=O)c1[nH]c2cc(C)ccc2c1NC(=O)CN1CCN(c2ccccc2OC)CC1", "AC50": "20 µM [falling, partial curve, poor fit]"}
{"smiles": "COC(=O)C1=C(CN2CCCc3ccccc32)NC(=O)NC1c1ccc(F)cc1", "note": "(centres undefined)", "AC50": "6.31 µM [rising, partial curve]"}
